Results on two substances are retold here after patent publication US20170210813A1.

Results are given in words; binding and its absence hold for the method and conditions named. Some results given as binding are weak or reduced against the parent protein; the word gives no strength.

The target of the experiment is human PDGFRb.mFc (human). Put plainly: SPR (Biacore 3000), 30 nM ligand over hPDGFRb.mFc captured by anti-mouse Fc, no antibody. (SPR reads the build-up and loss of mass on a sensor chip optically.)

Turning to “PDGF-DD (from UniProt Q9GZP0 250-370) (ligand)”, the binding entry is “binds”.
As for “PDGF-AB (from UniProt P04085 87-211; P01127 82-190) (ligand)”, the binding entry was “binds”.
